Measurements published in PubChem BioAssay AID1508600 (Functional Genomics Laboratory (NCATS/FGL), 2020).
The campaign covered roughly 53,000 sequences. About 3,700 (7%) were called active.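 The calls were made as follows: active = gene knockdowns whose robust z-score for IL-1 alpha signal is at least 2 or at most -2, so actives lie on both sides; inactive = the rest.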 The list shows a part of the results.

assay: Components of the Cytosolic LPS Sensing Pathway: Gene Identification via Genome-wide siRNA Screen; conditions: RAW264.7 macrophages, IL-1a HTRF, actives lie on both sides, screened at 100 nM (by protocol), cells primed 5 h with Pam3CSK4 first;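 also: robust z of the log signal after scaling to non-targeting control siRNA wells of the plate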
In short: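 Supernatant IL-1a by HTRF from RAW264.7 cells primed with Pam3CSK4 (5 hours) and transfected with LipidA (24 hour) after 48h siRNA knockdown at 100 nM; cell viability checked with CellTiter-Glo.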

Row | Sequence | z-score
1 | GCAGACACUGUUCGGGAUUTT against Zfp367 | inactive: -0.0298
2 | GGAGUCGAUUACGUUUAUUTT against Sec14l1 | inactive: -0.0533
3 | GGAGUAUCUAACAUCUACUTT against Smarcc2 | inactive: 1.33
4 | GGAUGGUCCAUGUCACAAATT against Scara5 | inactive: -1.21
5 | GGAGUGCAUGACUCAGCUUTT against Olfr926 | inactive: -1.54
6 | GCAUCAAGAUUAAGGUUGUTT against Mybpc1 | inactive: 0.0257
7 | CCGAAAGAACAAACAAAGGTT against Mgarp | inactive: -0.21
8 | GGACAUGGGCAAAAUGACCTT against Naga | inactive: -1.6
9 | GGAAACCUGAUACUAACAATT against Afmid | inactive: -1.88
10 | CCGAAUUUGUAGGAAUCGATT against Cep78 | inactive: -1.64
11 | GGACUCAAGAGUGAUUUCUTT against Ncoa5 | inactive: 1.27
12 | GCAUUAUGGUAGAAGUGGCTT against Sppl2c | inactive: -1.02
13 | GCUUCAUCUAAAGGAUAAGTT against Rcn2 | inactive: -0.101
14 | GGGACAAAUAAGAAAACCCTT against Ufc1 | inactive: -0.989
15 | GCUUUGAAAUCUGAAUCAGTT against Terf2 | active: 2.06
16 | GCUACUCGUUGUGAGAACUTT against Ccdc127 | inactive: -0.722
17 | GCUCCUAUCUACAGCUCUUTT against Samd4 | inactive: 0.0647
18 | GCGGCAUGGUUAAGAAUUATT against Chst11 | inactive: 0.0702
19 | GGUCAAACUUCAAUAGACATT against Zkscan6 | active: 2.01
20 | GGUAGCCAGAAAAAAAAAATT against Pkn3 | inactive: 0.648
21 | CCUGGUAUGCCAAACUUGATT against Ptpa | inactive: -0.115
22 | GGACUUGCCUCCAGAAAAUTT against Tmem167 | inactive: 0.413

Row | Sequence | z-score
23 | GGCCAAGAGAAUCUAAAGATT against Strn4 | inactive: -0.338
24 | CGAGUGUUUGGACAACAAUTT against Ldlr | inactive: 0.391
25 | UGCCGCUCGUGUUUCGGGATT against Hmx2 | inactive: -1.39
26 | CCAGCAAGCAAGAUUCCUGTT against Ola1 | inactive: 0.0919
27 | CGAUCAUCACCAGAACACCTT against Kcnt1 | inactive: -0.695
28 | CGACCAGAGUGGAUACCUGTT against Ocm | inactive: 1.98
29 | CCAAUGUGAUCUUGAGCCATT against Tmem198b | inactive: -1.27
30 | CCUCUUGUAUGUGUGGUUUTT against Cdc25b | inactive: 0.0873
31 | GGGCAAGAAAGGUGUUUUGTT against Prdx5 | inactive: 0.432
32 | GCCUGUGGAAACUUUCCUGTT against Faap100 | inactive: 0.142
33 | GGGAUUUAAAGCCAACUUGTT against Sfpq | inactive: 0.62
34 | GGACUAAAUAGGUUUACCATT against Alx1 | inactive: 1.26
35 | GGUUUUCAAACCCUUGUGGTT against Rnf44 | inactive: 1.44
36 | GGAAUUCAACUUCUUCAGUTT against Cxcr1 | inactive: 0.489
37 | GGUUUGAAAGGAGAAAGAGTT against Col4a6 | inactive: 0.366
38 | GGAGUUUCUCUGAUGAUGGTT against H2ac6 | inactive: 0.382
39 | GGUGGAGAGUGAACAACAATT against Tpr | inactive: -1.25
40 | CGGCUUCUCUCUUUACACATT against Fosb | active: 2.51
41 | GGACAACGUGCUCAUUAGUTT against Zfp709 | inactive: 0.0713
42 | CCAAGCCUAAUAAAAUUCCTT against Lsr | inactive: 0.867
43 | GGAUUUGGCUACAAAAACATT against Ppib | inactive: 0.648
44 | CCUUAACUAUGGAGGAGUUTT against Rims4 | inactive: -0.467

Row | Sequence | z-score
45 | GGAGAAAAAUCUAUUACCUTT against Ano4 | inactive: -1.94
46 | GCCGCAUAAUCAGAAAGGCTT against Pipox | inactive: 0.748
47 | GGUAAGAGGAUCCAAGGUGTT against Fam131a | inactive: 0.0909
48 | GCAUUGGCAGACCCGAGUUTT against Pir | inactive: 0.238
49 | GGUACCUCUCAGAUUAAGUTT against Metap1 | inactive: 0.642
50 | CCAGAAUGUAAACUUGGUCTT against Trpv6 | inactive: 0.0508
51 | GCUUGAACCUCAACACCAATT against Gpi1 | inactive: 0.552
52 | CCCGAGAUACAAAAUCAUUTT against Rcan3 | inactive: 0.641
53 | GGAUUAGCUCUACAGAAGGTT against Olfr1031 | inactive: 1.67
54 | CGAAAACCACAGGUUUCUGTT against Col5a1 | inactive: 1.3
55 | GGAGAAGAUGAUUAAGACCTT against Anp32b | inactive: 0.51
56 | CGGGUAUCAUGUACUACCUTT against Slc6a9 | inactive: 0.404
57 | CCAACAUUCACACAUCUGATT against Syngr2 | inactive: -1.4
58 | CCUCAUUCAGGGAGUUCCATT against 2200002J24Rik | inactive: -1.52
59 | GGUGAUGAAAUUUAUUGAGTT against Gpn1 | inactive: -0.127
60 | GGUUAAUCUUAACAACAUCTT against Tmod1 | inactive: 0.266
61 | GUGGUGGUGGAAGACAUAATT against Hdhd3 | inactive: 1.17
62 | GGAACAAAGGCUGAUCCAGTT against Chrnd | inactive: -1.28
63 | GCUGUUAGGUUCAUUACCATT against Herc2 | inactive: -0.117
64 | GGAGACCAUCAUGUCUUUATT against Olfr378 | inactive: 0.383
65 | CCCACUUUUUUUUAGACUGTT against Slc52a3 | inactive: 0.278
66 | GGAAAGGACGACAUACAGGTT against Zfp12 | inactive: -0.213

Row | Sequence | z-score
67 | CCAUUAUCCUGGUGUGUAUTT against Olfr1362 | inactive: -0.0735
68 | GGAGGCUAGACCUGUUUUUTT against 4932414J04Rik | inactive: -0.743
69 | GAAACUUUGAGUCCUCCAGTT against Dop1b | active: 3.22
70 | GGUAGACCGUCCGAAAAGATT against D11Wsu47e | inactive: -1.3
71 | GGCCAGUGUUACUGAGGAATT against 1700037C18Rik | inactive: -0.797
72 | CGUAGACUCCAAGCUCAAUTT against Ddx54 | inactive: -1.31
73 | CCGUCUAUUAAAUAUCUCGTT against Chmp4b | inactive: 0.295
74 | GCAUAGCUCAAAUCAAGGATT against Sik2 | inactive: 0.353
75 | GCUCUAGGCCAGAUGUUACTT against Slc13a3 | inactive: -0.476
76 | GGUGAAACUUGUUGAUUUUTT against Map4k4 | inactive: 1.52
77 | CGUCUCUGCUGAGAACAUGTT against Kcnk15 | inactive: -1.21
78 | GCAUCAGAUUAGGCAGGAATT against 6030498E09Rik | inactive: 1.36
79 | GGCUGUGAGCAAUUCAUAGTT against Kdm2b | inactive: -0.376
80 | GGGACCAACAUCAAUAAUGTT against Itih4 | inactive: 0.664
81 | CCGUUAAGCUCACUUGUCUTT against Notch4 | inactive: 0.382
82 | GCUACAUCGCUCUUAUAGCTT against Foxl1 | inactive: 0.0236
83 | GGCUCUGCUAUUUCUCCUGTT against Olfr17 | inactive: -1.16
84 | GGCACUAAAACAAUCGUCATT against Cyp26a1 | inactive: -0.702
85 | GGAUUUCAAAUCAAGAUGGTT against Serinc3 | inactive: -0.94
86 | GGCGGGUAGAUAUCAUGGGTT against Stn1 | inactive: 0.902
87 | GGUUGUUCGAGGAAUAUCCTT against Xirp2 | inactive: -0.623
88 | GCAGGCAUCAUCACGACAUTT against Gprc5c | inactive: 0.402

Part of the list above in a different format:

| Row | Sequence | z-score |
| --- | --- | --- |
| 70 | GGUAGACCGUCCGAAAAGATT against D11Wsu47e | inactive: -1.3 |
| 77 | CGUCUCUGCUGAGAACAUGTT against Kcnk15 | inactive: -1.21 |
| 82 | GCUACAUCGCUCUUAUAGCTT against Foxl1 | inactive: 0.0236 |
| 84 | GGCACUAAAACAAUCGUCATT against Cyp26a1 | inactive: -0.702 |

Remaining list, next part:

Row | Sequence | z-score
89 | GGGCGUGUCCUUGAAAGAATT against Frem2 | inactive: -0.633
90 | GGAAAGAAGUGUCAGUUUUTT against Npvf | inactive: 0.848
91 | GGCUGUGAGUAAACUUAUATT against Olfr301 | inactive: 0.852
92 | GCACCUAGCAGACAAAUAATT against Ppp1r3a | inactive: 1.55
93 | CCUUGGUUUUCCCACUUCATT against Cstdc1 | inactive: -0.268
94 | GGUGCUACGAGUUUUAGAATT against Tfap2c | inactive: 0.647
95 | GGUGAUGGGAAUAAAAACATT against Polg | inactive: 0.441
96 | GGACCCAUCGAAACCUCUATT against Pirb | inactive: -0.0759
97 | CAUGAUAGCGAUAGCAAUCTT against Olfr507 | inactive: 0.0127
98 | GCGGAAAAACAACUGCCAUTT against Otud5 | inactive: 1.64
99 | GGAAGCUUCCUAAUUCUUGTT against Slc16a1 | inactive: -0.304
100 | CCGACAUCCUUGAUACGUUTT against Vps35l | active: -2.12
101 | GAACUCUUCCAGUGGAAGUTT against Dctpp1 | inactive: -1.5
102 | GGAAGCAGAGAAAAUCCUGTT against Fbxl12 | inactive: -1.12
103 | GGAAUGUCAGUAAUCAGUGTT against Cox10 | inactive: 0.655
104 | GGAACAAAAAGAAAAGGACTT against Map7d3 | inactive: 0.679
105 | GCGAAGUGGACAUCGUUGUTT against Ikbkb | inactive: -1.56
106 | GGAUUUUAGCUGUUCUUGATT against Enpp1 | inactive: 0.18
107 | GGAGUAUGGGAUAAUUCUATT against Gm5087 | inactive: 1.22
